Several values for one entry are separate records, joined by “and”; a condition that tells them apart may be missing. Equal entries are not always repeated. This is one part of the list. This data set is noisy: repeats of one test often differ as much as different tests do.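 HEK293T cells were given each compound shortly before transfection with a reporter in which red mCherry is followed by the SARS-CoV-2 frameshift element and then GFP in the −1 frame, so GFP appears only after frameshifting.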

Experimental findings from the supplement of paper PMC8256030 are described below.

The test deals with SARS-CoV-2 -1 PRF reporter mCherry-FSE-GFP(-1). Briefly: percent effect, decrease of GFP/mCherry ratio (-1 PRF reporter) relative to controls; higher = stronger frameshift inhibition. The following applies: 10 µM; 24 h; HEK293T.
Regarding `COc1cc(C(C)=O)ccc1OCCCN1CCC(c2noc3cc(F)ccc23)CC1` [iloperidone], the percent effect is -2.03%.
Under `C1CCC(C(CC2CCCCN2)C2CCCCC2)CC1` (stereo unspecified) [perhexiline] stands -1.02%.
In the case of `C=CC[C@@H]1/C=C(\C)C[C@H](C)C[C@H](OC)[C@H]2O[C@@](O)(C(=O)C(=O)N3CCCC[C@H]3C(=O)O[C@H](/C(C)=C/[C@@H]3CC[C@@H](O)[C@H](OC)C3)[C@H](C)[C@@H](O)CC1=O)[C@H](C)C[C@@H]2OC` it was 0.827%; in that of `CN1CCC(CN2c3ccccc3Sc3ccccc32)C1` (stereo unspecified) [methdilazine], -0.159%.
Under `CC(C)OC(=O)c1cc2c(OCC(O)CNC(C)(C)C)cccc2[nH]1` (stereo unspecified) [carpindolol] stands 1.2%.
As to `CC(N)C(=O)OC(C)(C)Cc1ccc(Cl)cc1` (stereo unspecified) [alaproclate], the percent effect is 0.131%.
Under `C=C1[C@H](CO)[C@@H](O)C[C@@H]1n1cnc2c(=O)[nH]c(N)nc21` [Baraclude] stands -0.0138%; under `CCOC(=O)[C@H](CCc1ccccc1)N[C@@H](C)C(=O)N1Cc2cc(OC)c(OC)cc2C[C@H]1C(=O)O` [moexipril], -1.63%.
In the case of `CCCn1c(=O)c(CCCOC(=O)NC)nc2ccccc21` [bamaquimast] it was -1.76%; in that of `COc1cc2c(c(OC)c1OC)-c1c(cc3c(c1OC)OCO3)C[C@H](C)[C@@](C)(O)C2` [besigomsin], -5.27%.
In the case of `Oc1ccc(Cl)c2cccnc12` [cloxiquine], the percent effect was -3.79%.
In the case of `CS(=O)(=O)c1cc(C2(NC(=O)c3cncc4c3cnn4-c3ccc(F)cc3)CC2)ccn1`, the percent effect was -9.48%.
For the compound `N[C@@H](CC(=O)N1CCn2c(nnc2C(F)(F)F)C1)Cc1cc(F)c(F)cc1F` [sitagliptin], the percent effect turned out to be 1.1%.
Take `COc1nc(N)nc2c1ncn2[C@@H]1O[C@H](CO)[C@@H](O)[C@@H]1O` [nelarabine]: the percent effect is -1.23%.
In the case of `O=C1[C@H](CC[C@H](O)c2ccc(F)cc2)[C@@H](c2ccc(O)cc2)N1c1ccc(F)cc1` [ezetimibe], the percent effect was found to be 0.24%.
Turning to `O=C(O)c1cn(-c2ccc(F)cc2)c2cc(N3CCNCC3)c(F)cc2c1=O` [sarafloxacin], the percent effect is 3.8% and 0.921%.
`O=P(O)(O)C(O)(Cn1ccnc1)P(=O)(O)O` [Zoledronic acid]: the percent effect amounted to 2.39%.
Turning to `CCCCCCc1ccc(O)cc1O.Nc1c2ccccc2nc2ccccc12` [acrisorcin], the percent effect was -16.2%.
Under `COc1ccc(-c2[nH]c3ccccc3c2-c2ccc(OC)cc2)cc1` [indoxole] stands -3.98%; under `CC[C@H]1OC(=O)C[C@@H](O)[C@H](C)[C@@H](O[C@@H]2O[C@H](C)[C@@H](O[C@H]3C[C@@](C)(O)[C@@H](O)[C@H](C)O3)[C@H](N(C)C)[C@H]2O)[C@@H](CC=O)C[C@@H](C)C(=O)/C=C/C(C)=C/[C@@H]1CO[C@@H]1O[C@H](C)[C@@H](O)[C@@H](OC)[C@H]1OC`, 3%.
In the case of `NC[C@@H]1O[C@H](O[C@H]2[C@@H](O)[C@H](O[C@@H]3[C@@H](O)[C@H](N)C[C@H](N)[C@H]3O[C@H]3O[C@H](CN)[C@@H](O)[C@H](O)[C@H]3N)O[C@@H]2CO)[C@H](N)[C@@H](O)[C@@H]1O` [neomycin], the percent effect is -1.42% and -10.4%.
Under `O=C1OCCN1/N=C/c1ccc([N+](=O)[O-])o1` [furazolidone] stands -4.96%; under `COc1ccc2[nH]cc(CCNC(C)=O)c2c1` [Melatonin], -6.56%; under `CC(c1ccccc1)C1Nc2cc(Cl)c(S(N)(=O)=O)cc2S(=O)(=O)N1` (stereo unspecified) [bemetizide], 1.59%.
`CCc1cc2c(cc1CC)CC(NC[C@H](O)c1ccc(O)c3[nH]c(=O)ccc13)C2` [Indacaterol]: the percent effect was found to be 2.92%.
Under `CNC(=S)C1(c2ccccn2)CCCS1` (stereo unspecified) [picartamide] stands 1.35%; under `C=C1/C(=C\C=C2/CCC[C@]3(C)[C@@H]([C@H](C)OCCC(C)(C)O)CC[C@@H]23)C[C@@H](O)C[C@@H]1O` [maxacalcitol], 0.661%; under `COc1ccc2cc([C@H](C)C(=O)O)ccc2c1`, -0.00122%.
In the case of `CNCCCN1c2ccccc2CCc2ccccc21` [desipramine] it was -6.95%; in that of `CO[C@H]1C[C@H](O[C@@H]2/C(C)=C\C[C@@H]3C[C@@H](C[C@]4(C=C[C@H](C)[C@@H](C(C)C)O4)O3)OC(=O)[C@@H]3C=C(C)[C@@H](O)[C@H]4OC/C(=C/C=C\[C@@H]2C)[C@]43O)O[C@@H](C)[C@H]1O[C@H]1C[C@@H](OC)[C@H](NC(C)=O)[C@H](C)O1`, -4.37%; in that of `O=c1[nH]c2ccccc2n1CCN1CCN(c2cccc(C(F)(F)F)c2)CC1` [flibanserin], -7.07%.
